Measured data: PubChem BioAssay AID1508588 (Peter MacCallum Cancer Centre, 2020)

- Assay: 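Genome-wide search for knock-downs that heighten vemurafenib action in melanoma cells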 (primary screen)
- Cells: human WM266.4 melanoma cells (BRAF V600 mutant)
- Reagents: siRNA pool against human genes, 40 nM
- Timing: 96 h from transfection to read-out
- Conditions: vemurafenib 300 nM (about IC25), added 48 h after transfection, for 48 h; comparison arm got DMSO vehicle only
- Measured: 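Cell gain (DAPI nuclei at end minus before drug, mean of two replicates) and medium lactate by absorbance per cell, both as ratio to non-targeting siRNA, also grouped into fold-change classes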
- Scale: cell gain with vemurafenib: higher = more cell gain than with non-targeting siRNA; lactate per cell with vemurafenib: higher = more lactate made per cell
- Hit rule: 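a knock-down counts as enhancing when its fold-change classes with vehicle and with vemurafenib, taken together, show a stronger drug effect on cell gain or lactate per cell; exact class pairs not stated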
- Meaning of the calls: active = enhances vemurafenib effect; inactive = no enhancement seen
The whole screen tested about 18,000 reagents; this is a random part of them. 790 of them (4.4%) count as active. 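Calls rest on a combination of fold-change classes in drug and vehicle arms, not all shown here.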

| Gene | PubChem SID | cell gain with vemurafenib | lactate per cell with vemurafenib | activity call |
| --- | --- | --- | --- | --- |
| AP4B1 | SID134323893 | 0.13 | 2.38 | inactive |
| PPM1N | SID135621692 | 1.3 | 0.72 | inactive |
| PRPSAP2 | SID56479155 | 0.49 | 1.08 | inactive |
| SCML2 | SID135623911 | 0.18 | 1.45 | inactive |
| COL22A1 | SID134326391 | 0.63 | 0.48 | inactive |
| SEC61A1 | SID152147547 | 0.12 | 0.12 | active |
| SNX27 | SID152149866 | 0.62 | 1 | inactive |
| PAQR6 | SID152152296 | 0.52 | 1.57 | inactive |
| HOPX | SID134317638 | 0.8 | 0.99 | inactive |
| PLEKHJ1 | SID135624125 | 0.23 | 1.75 | inactive |
| CWC15 | SID152147194 | 0.33 | 0.9 | inactive |
| SLC44A5 | SID152156053 | 0.7 | 0.55 | inactive |
| GRM6 | SID152153452 | 0.35 | 1.9 | inactive |
| ANAPC7 | SID134324653 | 0.46 | 0.88 | inactive |
| BCOR | SID135620845 | 0.4 | 0.96 | inactive |
| BAIAP2L2 | SID152151467 | 0.67 | 1.56 | inactive |
| ZNF592 | SID152153738 | 1.07 | 0.84 | inactive |
| AGA | SID134310240 | 1.21 | 0.58 | inactive |
| CYP11B2 | SID135621695 | 1.44 | 0.53 | inactive |
| CCDC184 | SID152155941 | 0.71 | 1.31 | inactive |
| TNFSF10 | SID134315855 | 0.83 | 0.82 | inactive |
| ACAD8 | SID152155492 | 0.19 | 1.38 | inactive |
| DR1 | SID134314600 | 0.98 | 0.99 | inactive |
| PRRT1 | SID152148366 | 0.33 | 1.23 | inactive |
| CASD1 | SID134320898 | 0.43 | 1.52 | inactive |
| CENPF | SID152150064 | 0.78 | 1.01 | inactive |
| PLA2G2D | SID134314856 | 0.39 | 1.42 | inactive |
| RUMY4 | SID135625675 | 0.95 | 0.76 | inactive |
| H4C7 | SID135622130 | 0.62 | 0.9 | inactive |
| GANAB | SID152150891 | 0.45 | 1.17 | inactive |
| CDH26 | SID135623315 | 0.23 | 1.14 | inactive |
| OR2T12 | SID135624238 | 0.2 | 2.26 | inactive |
| GARIN2 | SID152156107 | 0.6 | 0.71 | inactive |
| CRISP3 | SID134323831 | 0.54 | 0.9 | inactive |
